Source: PubChem BioAssay AID1259285 (Sanger Institute, 2017)

- Assay: 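Kinase knock-downs that reduce colorectal cancer cell viability or act with drugs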 (primary screen)
- System: human HCC56 colorectal cancer cells
- Reagent: siRNA pool against human genes
- Treatment: DMSO vehicle, or anchor drug BYL719 at 1 µM, cetuximab at 5 µg/ml, or trametinib at 10 nM
- Detection: 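Replicate-averaged viability relative to non-targeting siRNA, expressed as a robust z-score from controls, plus a synergy score for each of three anchor drugs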
- Scale: viability robust z-score, no drug: higher = more viable cells, weaker knock-down effect; viability vs non-targeting pool, no drug: higher = more viable cells; synergy score with BYL719: higher = stronger combined killing with BYL719; synergy score with cetuximab: higher = stronger combined killing with cetuximab; synergy score with trametinib: higher = stronger combined killing with trametinib
- Rule for the call: 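a knock-down counts as essential if its viability z-score without drug is under -3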
- Meaning of the calls: active = essential without drug; inactive = no change without drug
Shown is an unselected part of 794 deposited reagents. Of all reagents, 20 (2.5%) are marked active. 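Calls rest on the drug-free arm alone and ignore synergy scores; viability ratios seem to be capped at 1.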 Not given: the amount of reagent, the time to read-out.

target gene	viability robust z-score, no drug	viability vs non-targeting pool, no drug	synergy score with BYL719	synergy score with cetuximab	synergy score with trametinib	call
FLT3	0.458	1	-0.0479	-0.142	0.0907	inactive
EPHB2	0.458	1	-0.162	-0.142	-0.0358	inactive
FGFR2	0.458	1	-0.162	-0.142	-0.257	inactive
RIOK1	0.458	1	-0.141	0.018	-0.16	inactive
DGKD	-0.58	0.911	-0.00719	0.0353	0.0159	inactive
PIK3CA	0.458	1	-0.113	-0.0399	0.0937	inactive
MAP3K2	0.458	1	0.0438	-0.00597	-0.0103	inactive
TESK1	0.458	1	-0.162	-0.142	-0.0624	inactive
HUS1	0.458	1	-0.0781	-0.142	-0.0974	inactive
TTBK2	0.458	1	-0.117	-0.118	-0.0427	inactive
IP6K1	0.458	1	-0.00807	0.0169	0.0283	inactive
FASTK	0.458	1	0.0691	0.00249	0.074	inactive
MYO3A	-1.92	0.795	0.0195	0.0242	0.0232	inactive
SBK1	0.458	1	-0.0286	-0.142	-0.159	inactive
BRD2	0.382	0.993	-0.0236	-0.124	-0.0661	inactive
PIP5K1A	-0.455	0.922	0.076	0.192	0.0763	inactive
GSK3A	-0.47	0.92	-0.124	-0.0374	0.0174	inactive
GRK2	0.458	1	-0.162	-0.142	-0.324	inactive
ALPK3	0.458	1	0.225	0.165	0.0956	inactive
NEK2	0.458	1	-0.0713	-0.00828	0.0278	inactive
CSNK1G1	0.458	1	-0.00816	-0.142	-0.0659	inactive
NUAK1	-0.0952	0.952	-0.0161	0.0325	0.078	inactive
DYRK3	0.458	1	-0.162	-0.065	0.124	inactive
ERBB2	0.458	1	-0.139	-0.119	-0.0387	inactive
ATM	-1.35	0.845	-0.0316	-0.033	-0.0481	inactive
BMP2K	0.458	1	-0.162	-0.142	-0.0954	inactive
TP53	0.222	0.98	0.0395	0.0446	-0.0123	inactive
TSKS	0.458	1	-0.162	-0.142	-0.321	inactive
ETNK2	-1.65	0.819	-0.0636	0.063	0.0698	inactive
HIPK2	0.458	1	-0.162	-0.0519	0.101	inactive
TAF1	0.458	1	-0.098	-0.142	-0.0852	inactive
CSNK1G2	0.458	1	-0.162	-0.142	-0.0677	inactive
PKLR	0.458	1	-0.162	-0.142	-0.112	inactive
PRKCE	-1.55	0.828	-0.00887	-0.0331	-0.0797	inactive
NUP62	0.458	1	-0.162	-0.142	-0.0752	inactive
TNK1	0.458	1	-0.0233	0.0391	0.00276	inactive
AK4	0.458	1	-0.0725	-0.142	-0.017	inactive
MAP3K11	0.458	1	-0.0662	-0.142	0.0216	inactive
CREBBP	-2.28	0.765	-0.076	0.0177	-0.0987	inactive
CDK15	0.458	1	-0.162	-0.142	-0.125	inactive

Individual results from the list.
Result for RIOK1 under “viability vs non-targeting pool, no drug”: 1
FLT3, synergy score with trametinib → 0.0907
DGKD, viability vs non-targeting pool, no drug: 0.911
Result for DYRK3 in “synergy score with trametinib”: 0.124
Entry for PIK3CA under “viability vs non-targeting pool, no drug”: 1

Continued:
target gene	viability robust z-score, no drug	viability vs non-targeting pool, no drug	synergy score with BYL719	synergy score with cetuximab	synergy score with trametinib	call
MAP2K1	0.458	1	-0.0726	-0.13	-0.151	inactive
MTOR	0.458	1	-0.0443	-0.142	-0.0466	inactive
VRK3	0.458	1	-0.162	-0.142	-0.0768	inactive
UCKL1	-2.01	0.788	-0.0584	-0.204	-0.0939	inactive
CALM2	0.0857	0.968	0.0522	-0.0393	0.109	inactive
CDK16	0.458	1	-0.158	-0.00451	0.0434	inactive
PRKAR2B	-2.2	0.771	-0.0482	-0.15	-0.0362	inactive
TGFBR1	0.458	1	-0.0853	-0.142	0.0169	inactive
ARAF	0.458	1	-0.162	-0.142	-0.103	inactive
IGF1R	0.458	1	0.0804	-0.0124	0.0221	inactive
MVK	0.458	1	0.0219	-0.0122	-0.0262	inactive
ITPK1	-0.0921	0.953	0.0593	0.124	0.0193	inactive
EPHA5	0.458	1	-0.13	-0.142	-0.172	inactive
KHK	0.458	1	-0.162	-0.142	-0.153	inactive
CNOT1	0.458	1	-0.104	-0.132	0.0471	inactive
AK7	0.458	1	-0.162	-0.142	-0.0208	inactive
MYLK3	0.458	1	-0.162	-0.142	-0.0342	inactive
CAMK4	-0.162	0.947	-0.13	-0.188	0.123	inactive
SPHK1	0.458	1	0.0312	-0.0415	0.0493	inactive
GRK1	-0.38	0.928	-0.0652	-0.0712	-0.00825	inactive
PIK3R4	-0.96	0.878	-0.0454	0.0219	0.0431	inactive
PAK1	-0.0292	0.958	0.03	0.0555	0.041	inactive
GOLGA5	0.453	1	-0.133	-0.0522	-0.0206	inactive
